The record followed here is paper PMC10158027.

By UniProt entry, the sequences of proteins in these tests, tags left out.
UniProt Q86U44: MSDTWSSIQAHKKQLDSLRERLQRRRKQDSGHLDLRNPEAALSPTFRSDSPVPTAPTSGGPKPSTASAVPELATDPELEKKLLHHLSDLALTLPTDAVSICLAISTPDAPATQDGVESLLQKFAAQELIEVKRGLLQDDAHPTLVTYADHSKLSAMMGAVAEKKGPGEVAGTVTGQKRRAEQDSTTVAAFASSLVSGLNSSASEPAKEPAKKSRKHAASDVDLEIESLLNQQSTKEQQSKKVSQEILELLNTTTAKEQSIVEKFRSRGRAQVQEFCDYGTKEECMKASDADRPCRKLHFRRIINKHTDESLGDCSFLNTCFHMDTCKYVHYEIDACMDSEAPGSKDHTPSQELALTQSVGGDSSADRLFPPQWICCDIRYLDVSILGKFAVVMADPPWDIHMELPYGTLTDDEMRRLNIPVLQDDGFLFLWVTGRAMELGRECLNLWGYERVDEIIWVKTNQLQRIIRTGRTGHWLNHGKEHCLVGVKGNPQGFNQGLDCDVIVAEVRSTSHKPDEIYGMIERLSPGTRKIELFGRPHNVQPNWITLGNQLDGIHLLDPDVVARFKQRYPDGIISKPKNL

No constants are given. Whether binding was seen depends on the method and setting. In cells and extracts the contact can be indirect. Some entries that bind do so weakly or less than the wild type. For part of these data: Where a sequence is shown, tags or fusion partners need not be part of it.

Experiment [1] deals with T1, USP13 (human (endogenous in OS cells)) (UniProt Q92995).
T1 sequence: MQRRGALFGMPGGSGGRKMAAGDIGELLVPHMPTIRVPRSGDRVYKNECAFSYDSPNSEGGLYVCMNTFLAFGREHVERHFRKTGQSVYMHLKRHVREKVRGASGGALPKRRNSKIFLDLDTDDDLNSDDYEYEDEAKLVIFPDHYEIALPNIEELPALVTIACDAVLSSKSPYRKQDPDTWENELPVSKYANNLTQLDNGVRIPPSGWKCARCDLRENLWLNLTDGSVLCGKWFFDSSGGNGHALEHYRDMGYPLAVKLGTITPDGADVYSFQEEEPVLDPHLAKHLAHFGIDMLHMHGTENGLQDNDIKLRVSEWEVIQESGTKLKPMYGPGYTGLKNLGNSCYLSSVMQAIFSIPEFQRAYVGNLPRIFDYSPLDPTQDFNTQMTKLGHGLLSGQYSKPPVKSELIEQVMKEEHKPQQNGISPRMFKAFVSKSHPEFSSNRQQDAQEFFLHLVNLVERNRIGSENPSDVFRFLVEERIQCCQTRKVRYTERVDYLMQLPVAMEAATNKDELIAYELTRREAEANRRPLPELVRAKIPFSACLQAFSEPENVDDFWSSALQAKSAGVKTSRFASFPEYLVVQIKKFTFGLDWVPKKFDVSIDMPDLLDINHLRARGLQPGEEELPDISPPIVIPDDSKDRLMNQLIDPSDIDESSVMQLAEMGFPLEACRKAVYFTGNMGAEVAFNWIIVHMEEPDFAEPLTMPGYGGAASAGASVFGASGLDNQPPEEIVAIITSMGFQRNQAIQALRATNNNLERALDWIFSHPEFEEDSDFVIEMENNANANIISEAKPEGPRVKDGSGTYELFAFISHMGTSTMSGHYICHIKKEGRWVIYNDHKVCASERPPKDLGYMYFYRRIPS
The experiment in a line: co-IP; lysates of OS cells immunoprecipitated with USP13 or METTL3 antibody, immunoblotted with METTL3 or USP13 antibody; endogenous proteins. For orientation: Immunoblotting shows a protein as a band on a membrane.

The target in another experiment is T2, Flag-tagged USP13 (UniProt Q92995).
T2 sequence: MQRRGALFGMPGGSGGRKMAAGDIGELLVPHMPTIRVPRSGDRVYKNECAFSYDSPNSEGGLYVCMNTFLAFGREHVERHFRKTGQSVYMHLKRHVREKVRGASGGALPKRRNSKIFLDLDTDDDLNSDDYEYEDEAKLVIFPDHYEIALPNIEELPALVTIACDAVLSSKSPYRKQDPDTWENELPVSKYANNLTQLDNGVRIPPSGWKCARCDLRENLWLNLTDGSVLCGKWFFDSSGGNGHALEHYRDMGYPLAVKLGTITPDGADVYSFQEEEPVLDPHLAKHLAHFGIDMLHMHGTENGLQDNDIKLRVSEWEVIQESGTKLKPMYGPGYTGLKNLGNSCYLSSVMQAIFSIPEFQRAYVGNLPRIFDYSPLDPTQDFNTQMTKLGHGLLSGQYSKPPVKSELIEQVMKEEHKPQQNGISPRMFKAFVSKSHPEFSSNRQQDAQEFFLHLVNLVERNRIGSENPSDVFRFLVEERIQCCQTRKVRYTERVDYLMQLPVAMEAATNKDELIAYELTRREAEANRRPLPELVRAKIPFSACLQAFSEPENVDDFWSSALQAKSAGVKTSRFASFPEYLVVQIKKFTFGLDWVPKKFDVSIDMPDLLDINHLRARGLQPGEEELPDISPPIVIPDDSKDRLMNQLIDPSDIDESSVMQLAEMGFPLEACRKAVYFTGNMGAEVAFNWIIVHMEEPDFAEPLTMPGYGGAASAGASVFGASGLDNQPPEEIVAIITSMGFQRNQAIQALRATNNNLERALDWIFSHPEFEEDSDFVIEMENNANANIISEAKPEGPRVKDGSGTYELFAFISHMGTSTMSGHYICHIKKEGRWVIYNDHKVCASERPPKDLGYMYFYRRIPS
The experiment is described as follows: co-IP; HEK 293T cells co-transfected with Flag-USP13 and Myc-METTL3 (full length or deletion fragments); lysates immunoprecipitated with Flag or Myc antibody, immunoblotted with anti-Myc and anti-Flag.

Experiment [2] concerns the target METTL3 (human (endogenous in OS cells)) (UniProt Q86U44). The experiment in a line: co-IP; lysates of OS cells immunoprecipitated with USP13 or METTL3 antibody, immunoblotted with METTL3 or USP13 antibody; endogenous proteins.

For “METTL3 (from UniProt Q86U44 1-580) (enzyme)”, the binding result in experiment [1] is given as “binds”.

In the case of “Myc-tagged full-length (FL) METTL3 (from UniProt Q86U44 1-580) (enzyme)”, the binding entry with Flag-tagged USP13 is given as “binds”.

B1: USP13 (enzyme, UniProt Q92995 1-863)
chain: MQRRGALFGMPGGSGGRKMAAGDIGELLVPHMPTIRVPRSGDRVYKNECAFSYDSPNSEGGLYVCMNTFLAFGREHVERHFRKTGQSVYMHLKRHVREKVRGASGGALPKRRNSKIFLDLDTDDDLNSDDYEYEDEAKLVIFPDHYEIALPNIEELPALVTIACDAVLSSKSPYRKQDPDTWENELPVSKYANNLTQLDNGVRIPPSGWKCARCDLRENLWLNLTDGSVLCGKWFFDSSGGNGHALEHYRDMGYPLAVKLGTITPDGADVYSFQEEEPVLDPHLAKHLAHFGIDMLHMHGTENGLQDNDIKLRVSEWEVIQESGTKLKPMYGPGYTGLKNLGNSCYLSSVMQAIFSIPEFQRAYVGNLPRIFDYSPLDPTQDFNTQMTKLGHGLLSGQYSKPPVKSELIEQVMKEEHKPQQNGISPRMFKAFVSKSHPEFSSNRQQDAQEFFLHLVNLVERNRIGSENPSDVFRFLVEERIQCCQTRKVRYTERVDYLMQLPVAMEAATNKDELIAYELTRREAEANRRPLPELVRAKIPFSACLQAFSEPENVDDFWSSALQAKSAGVKTSRFASFPEYLVVQIKKFTFGLDWVPKKFDVSIDMPDLLDINHLRARGLQPGEEELPDISPPIVIPDDSKDRLMNQLIDPSDIDESSVMQLAEMGFPLEACRKAVYFTGNMGAEVAFNWIIVHMEEPDFAEPLTMPGYGGAASAGASVFGASGLDNQPPEEIVAIITSMGFQRNQAIQALRATNNNLERALDWIFSHPEFEEDSDFVIEMENNANANIISEAKPEGPRVKDGSGTYELFAFISHMGTSTMSGHYICHIKKEGRWVIYNDHKVCASERPPKDLGYMYFYRRIPS
In the case of B1, in experiment [2], the binding entry was “binds”.
